Data taken from paper PMC10847507.
These are yes or no findings as the source states them, for the method shown. Binding seen in cells or lysates may run through a third protein. Some binding calls cover weakened binding; strength is not graded here.

Chains of the proteins cited; added tags and fusions are not shown. Residues count along the entry.
UniProt P35918, residues 20-1345: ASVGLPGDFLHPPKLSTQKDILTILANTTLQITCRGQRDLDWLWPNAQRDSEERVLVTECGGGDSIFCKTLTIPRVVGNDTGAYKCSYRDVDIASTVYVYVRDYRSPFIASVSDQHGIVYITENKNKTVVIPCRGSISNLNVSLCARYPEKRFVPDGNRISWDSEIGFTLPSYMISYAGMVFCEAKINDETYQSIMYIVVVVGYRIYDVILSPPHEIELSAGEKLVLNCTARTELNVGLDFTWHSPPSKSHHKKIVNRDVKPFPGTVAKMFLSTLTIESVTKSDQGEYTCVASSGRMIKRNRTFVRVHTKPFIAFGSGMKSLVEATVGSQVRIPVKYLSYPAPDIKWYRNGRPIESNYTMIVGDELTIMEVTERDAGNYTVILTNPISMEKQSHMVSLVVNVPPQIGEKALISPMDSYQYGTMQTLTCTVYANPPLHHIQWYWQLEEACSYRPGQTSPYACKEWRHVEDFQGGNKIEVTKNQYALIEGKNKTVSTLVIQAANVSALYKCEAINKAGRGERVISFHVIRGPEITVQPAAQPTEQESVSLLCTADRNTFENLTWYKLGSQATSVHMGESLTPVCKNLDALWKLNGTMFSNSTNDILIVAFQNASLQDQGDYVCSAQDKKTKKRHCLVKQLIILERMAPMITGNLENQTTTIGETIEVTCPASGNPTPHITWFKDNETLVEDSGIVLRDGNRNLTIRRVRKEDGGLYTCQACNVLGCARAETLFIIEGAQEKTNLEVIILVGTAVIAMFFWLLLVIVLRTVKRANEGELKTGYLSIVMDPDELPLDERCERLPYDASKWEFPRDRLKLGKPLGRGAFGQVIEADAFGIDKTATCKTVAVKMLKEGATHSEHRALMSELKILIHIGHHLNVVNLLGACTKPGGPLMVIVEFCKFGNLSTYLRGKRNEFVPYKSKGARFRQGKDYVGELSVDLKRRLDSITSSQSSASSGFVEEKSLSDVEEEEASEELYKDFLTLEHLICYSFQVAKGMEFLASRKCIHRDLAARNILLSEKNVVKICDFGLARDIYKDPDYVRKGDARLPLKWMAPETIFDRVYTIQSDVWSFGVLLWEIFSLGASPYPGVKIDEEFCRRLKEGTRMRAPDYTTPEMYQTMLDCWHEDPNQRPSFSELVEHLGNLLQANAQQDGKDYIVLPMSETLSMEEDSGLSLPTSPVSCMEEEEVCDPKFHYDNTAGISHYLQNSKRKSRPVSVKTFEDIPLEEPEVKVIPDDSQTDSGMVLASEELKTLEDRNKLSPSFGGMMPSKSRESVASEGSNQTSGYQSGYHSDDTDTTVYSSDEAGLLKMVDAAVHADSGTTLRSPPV
UniProt P35968, residues 20-1356: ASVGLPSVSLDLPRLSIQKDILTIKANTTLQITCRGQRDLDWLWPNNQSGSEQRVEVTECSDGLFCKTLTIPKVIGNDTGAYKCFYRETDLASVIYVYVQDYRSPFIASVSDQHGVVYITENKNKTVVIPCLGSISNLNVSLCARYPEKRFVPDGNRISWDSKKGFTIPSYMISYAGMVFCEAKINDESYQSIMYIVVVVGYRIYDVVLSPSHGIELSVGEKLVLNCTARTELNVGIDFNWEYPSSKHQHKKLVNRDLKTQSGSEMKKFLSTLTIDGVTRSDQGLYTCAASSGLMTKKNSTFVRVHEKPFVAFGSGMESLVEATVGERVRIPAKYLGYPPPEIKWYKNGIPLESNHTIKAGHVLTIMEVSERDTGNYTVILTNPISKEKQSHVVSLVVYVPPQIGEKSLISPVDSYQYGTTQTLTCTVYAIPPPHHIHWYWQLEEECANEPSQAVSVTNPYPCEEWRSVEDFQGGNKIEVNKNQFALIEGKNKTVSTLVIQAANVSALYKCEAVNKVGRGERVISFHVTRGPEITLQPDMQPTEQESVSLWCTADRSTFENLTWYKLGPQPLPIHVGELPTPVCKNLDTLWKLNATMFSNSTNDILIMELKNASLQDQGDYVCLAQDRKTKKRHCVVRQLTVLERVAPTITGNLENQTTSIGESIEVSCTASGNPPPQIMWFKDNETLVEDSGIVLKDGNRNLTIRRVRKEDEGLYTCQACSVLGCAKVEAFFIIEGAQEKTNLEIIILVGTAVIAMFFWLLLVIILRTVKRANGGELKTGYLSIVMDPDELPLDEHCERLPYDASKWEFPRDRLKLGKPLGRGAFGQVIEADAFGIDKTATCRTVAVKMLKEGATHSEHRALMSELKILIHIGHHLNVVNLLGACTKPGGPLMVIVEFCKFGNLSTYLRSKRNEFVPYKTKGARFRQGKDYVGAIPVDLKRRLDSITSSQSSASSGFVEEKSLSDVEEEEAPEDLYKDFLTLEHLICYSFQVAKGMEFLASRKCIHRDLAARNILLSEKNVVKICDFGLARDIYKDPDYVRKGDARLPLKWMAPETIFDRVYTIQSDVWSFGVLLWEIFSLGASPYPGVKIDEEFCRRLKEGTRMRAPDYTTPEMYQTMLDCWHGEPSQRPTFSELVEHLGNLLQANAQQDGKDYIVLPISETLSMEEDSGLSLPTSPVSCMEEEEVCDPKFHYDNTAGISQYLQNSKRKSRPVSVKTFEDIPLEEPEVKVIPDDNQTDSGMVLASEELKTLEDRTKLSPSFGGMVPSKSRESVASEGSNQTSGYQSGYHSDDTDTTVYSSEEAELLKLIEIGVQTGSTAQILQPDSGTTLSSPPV

Key:
[1] = target: VEGFR2 (mouse (endogenous in M6)) (UniProt P35918); experiment: proximity ligation; Duolink PLA on cells fixed in 4% formaldehyde and permeabilised with 0.1% Triton X-100; Control, ID4-KO and ID4-KO cells treated with recombinant VEGFA (20 ng/mL) for 24 h; mean fluorescence intensity of 40 cells per condition
[2] = target: VEGFR2 (human (endogenous in MDA-MB-468)) (UniProt P35968); experiment: as above

B1: integrin β3 (receptor, UniProt O54890 26-787)
chain: ESNICTTRGVNSCQQCLAVSPVCAWCSDETLSQGSPRCNLKENLLKDNCAPESIEFPVSEAQILEARPLSSKGSGSSAQITQVSPQRIALRLRPDDSKIFSLQVRQVEDYPVDIYYLMDLSFSMKDDLSSIQTLGTKLASQMRKLTSNLRIGFGAFVDKPVSPYMYISPPQAIKNPCYNMKNACLPMFGYKHVLTLTDQVSRFNEEVKKQSVSRNRDAPEGGFDAIMQATVCDEKIGWRNDASHLLVFTTDAKTHIALDGRLAGIVLPNDGHCHIGTDNHYSASTTMDYPSLGLMTEKLSQKNINLIFAVTENVVSLYQNYSELIPGTTVGVLSDDSSNVLQLIVDAYGKIRSKVELEVRDLPEELSLSFNATCLNNEVIPGLKSCVGLKIGDTVSFSIEAKVRGCPQEKEQSFTIKPVGFKDSLTVQVTFDCDCACQAFAQPSSPRCNNGNGTFECGVCRCDQGWLGSMCECSEEDYRPSQQEECSPKEGQPICSQRGECLCGQCVCHSSDFGKITGKYCECDDFSCVRYKGEMCSGHGQCNCGDCVCDSDWTGYYCNCTTRTDTCMSTNGLLCSGRGNCECGSCVCVQPGSYGDTCEKCPTCPDACSFKKECVECKKFNRGTLHEENTCSRYCRDDIEQVKELTDTGKNAVNCTYKNEDDCVVRFQYYEDTSGRAVLYVVEEPECPKGPDILVVLLSVMGAILLIGLATLLIWKLLITIHDRKEFAKFEEERARAKWDTANNPLYKEATSTFTNITYRGT
With B1 the binding [1] was “binds” and the binding [2] was “binds”.
